Test results from patent US10507207B2, “Non-nucleosidic inhibitors of reverse transcriptase as antagonists of cell proliferation and inducers of cell differentiation” (ISTITUTO SUPERIORE DI SANITA, priority 2001, dated 2019).
At least one structure is not confirmed: it was looked up by name or label, or the drawing left a doubt.

Legend:
HL60 cells = assay: Morphological differentiation, Wright-Giemsa staining; format: cell-based, human; settings: 1 μM RA, data not shown
teratocarcinoma F9 cells = assay: Differentiation of F9 cells (morphology, collagen type IV immunofluorescence); format: cell-based, murine
Experimental: After 96 h, samples were fixed and processed for IF of collagen type IV (α1) chain (FIG. 5c, FIG. 5g, FIG. 5k) and DAPI staining of nuclei (FIG. 5b, FIG. 5f, FIG. 5j); pictures are merged in FIG. 5d, FIG. 5h and FIG. 5l (100× objective).

NB4 cells = assay: Morphological differentiation, Wright-Giemsa staining; format: cell-based, human; settings: 1 μM RA

In the case of `CC1=C(/C=C/C(C)=C/C=C/C(C)=C/C(=O)O)C(C)(C)CCC1` [RA, retinoic acid], the morphology (HL60 cells) is reported as “metamyelocyte-like morphology were induced”, the “synthesis of collagen type IV(α1) chain” value (teratocarcinoma F9 cells; IF after 96 h) is reported as “induced” and the morphological differentiation (teratocarcinoma F9 cells; after 72 h of culture) is reported as “characteristic signs of morphological differentiation become apparent”. The morphology (NB4 cells) was “metamyelocyte-like morphology were induced”.
